Data on one sequence can be found in publication doi:10.1101/2024.10.21.619419 (bioRxiv, 2024).

The exact form of at least one protein or probe is not confirmed.

For this data set, the target named is Bxb1 integrase (WT) (Mycobacteriophage Bxb1) (UniProt Q9B086). Briefly: EMSA. As to conditions: residues 2-500. On the technique in general: A gel shift assay detects complexes by their altered migration in electrophoresis.

With “GTGTAGCGTCGCTACGCGCCATTGTCAGCACAAGAGTGGTTTGTCTGGTCAACCACCGCGGTCTCCGTCGTCAGGATCATCCGGTCGCTATCTAGCGAGTTCGCGCGCTCTGTG (double strand) [Bxb1 attR (115 bp)]”, the Kd was 3 nM.

As usually defined, the Kd is a measure of binding affinity in units of concentration.
